# Experimental data from PMC9760430 (International Journal of Biological Sciences, 2023).
# Strings that start with PEPTIDE1 are HELM notation: dots part the residues, brackets hold end groups and non-standard residues.
# Test: peptide synthesis
# Conditions: conjugation step, 230 and 735 nm
substance,measurement,value
"PEPTIDE1{C.F.E.T.L.R.G.D.L.R.I.L.S.I.L.R.[PraTrz].Q.N.L.[AzLysTrz].K.E.L.Q.D.[am]}|CHEM1{[IRDye800CW_suc]}$PEPTIDE1,PEPTIDE1,17:R3-21:R3|PEPTIDE1,CHEM1,1:R3-1:R1$$$V2.0",final LC-MS purity,>95%
